No constants are given. Whether binding was seen depends on the method and setting.
Molecular target: T1, Ctrl-FITC peptide
T1 sequence (peptide, FITC on the unique cysteine): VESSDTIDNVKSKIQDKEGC
Experiment: other fluorescence titration; 200 nM FITC-labelled peptide titrated with purified recombinant protein; 25°C; 200 ul potassium phosphate buffer, pH 7.2, 150 mM NaCl; 96-well microplates; excitation 485 nm, emission 520 nm; fit with a standard quadratic equation; both purified

**Q.** GST-Cyclin A was tested. Which binding did it give?
**A.** no binding

Reference: article PMC3196589, “Fluorescent Peptide Biosensor for Probing the Relative Abundance of Cyclin-Dependent Kinases in Living Cells” (PLoS ONE, 2011)
